Experimental data published in the supplement of paper PMC12282887.

Tested on: Escherichia coli BW25113
Assay: growth (OD600 area under curve, 8 h) (OD600 x h); higher = more growth
Method: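 E. coli BW25113 reporter strains (wild type, ΔmarA, ΔsoxS, Δrob, each carrying one of 8 lux reporter plasmids) were grown in 40 µl LB in 384-well plates at 37°C, 800 rpm, with each compound at 4 two-fold concentrations, in biological duplicates. Growth is the baseline-corrected OD600 area under the curve over 8 h (0-8 h WT, 1-9 h deletion strains).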

N=C(NCCCCCCNC(=N)NC(=N)Nc1ccc(Cl)cc1)NC(=N)Nc1ccc(Cl)cc1 [Chlorhexidine]
growth
Conditions	reporter plasmid: EVC	reporter plasmid: acrABp	reporter plasmid: marRABp	reporter plasmid: micFp	reporter plasmid: ompFp	reporter plasmid: robp	reporter plasmid: soxSp	reporter plasmid: tolCp
0.063 µg/ml, genetic background: wild type	2.99	2.66	3.16	3.32	2.86	3.18	3.11	3.06
0.063 µg/ml, genetic background: ΔmarA	3.05	4.24	3.67	3.34	3.49	3.63	2.91	2.89
0.063 µg/ml, genetic background: Δrob	2.73	3.16	3.26	3.14	2.48	2.69	2.892	3.035
0.063 µg/ml, genetic background: ΔsoxS	3.11	3.2	3.32	2.91	2.92	3.14	3.16	2.97
0.13 µg/ml, genetic background: wild type	2.85	2.67	3.35	3.28	2.916	3.18	2.98	2.98
0.13 µg/ml, genetic background: ΔmarA	2.85	3.98	3.56	3.13	3.37	3.4	2.68	2.75
0.13 µg/ml, genetic background: Δrob	2.63	3.31	3.19	3.11	2.6	2.74	2.87	3.06
0.13 µg/ml, genetic background: ΔsoxS	3.11	3.17	3.27	2.72	2.883	3.3	3.02	2.74
0.25 µg/ml, genetic background: wild type	2.84	2.86	3.25	3.23	3.06	3.31	3.08	3.05
0.25 µg/ml, genetic background: ΔmarA	3.05	3.76	3.59	3.23	3.46	3.52	2.8	2.9
0.25 µg/ml, genetic background: Δrob	2.78	2.92	3.17	3.13	2.66	2.73	2.95	3.11
0.25 µg/ml, genetic background: ΔsoxS	3.12	3.31	3.27	2.93	3.09	3.16	3.22	2.88
0.51 µg/ml, genetic background: wild type	2.6	2.73	3.306	3.17	2.94	3.18	2.83	3.05
0.51 µg/ml, genetic background: ΔmarA	2.55	3.59	2.973	3.17	3.14	3.36	2.51	2.6
0.51 µg/ml, genetic background: Δrob	2.69	2.912	3.29	2.95	2.42	2.6	2.84	3.04
0.51 µg/ml, genetic background: ΔsoxS	2.88	3.21	3.15	2.35	2.69	2.86	2.92	2.73

COc1cccc2c1C(=O)c1c(O)c3c(c(O)c1C2=O)C[C@@](O)(C(=O)CO)C[C@@H]3O[C@H]1C[C@H](N)[C@H](O)[C@H](C)O1 [Doxorubicin]
growth
Conditions	reporter plasmid: EVC	reporter plasmid: acrABp	reporter plasmid: marRABp	reporter plasmid: micFp	reporter plasmid: ompFp	reporter plasmid: robp	reporter plasmid: soxSp	reporter plasmid: tolCp
0.29 µg/ml, genetic background: wild type	2.94	2.6391	3.24	3.05	2.74	2.93	2.74	2.96
0.29 µg/ml, genetic background: ΔmarA	3.43	4.3	3.78	3.29	3.4	3.78	3.07	2.96
0.29 µg/ml, genetic background: Δrob	2.59	3.07	3.49	3.15	2.53	2.65	2.92	3
0.29 µg/ml, genetic background: ΔsoxS	2.79	2.99	3.01	2.75	2.7723	2.94	2.97	2.8
0.58 µg/ml, genetic background: wild type	2.64	2.7077	3.25	2.92	2.69	2.83	2.83	2.89
0.58 µg/ml, genetic background: ΔmarA	3.33	4.51	3.78	3.28	3.33	3.91	3.01	3
0.58 µg/ml, genetic background: Δrob	2.41	2.854	3.33	2.88	2.53	2.54	2.72	2.86
0.58 µg/ml, genetic background: ΔsoxS	2.6	2.82	2.97	2.48	2.69	2.74	2.7	2.67
1.2 µg/ml, genetic background: wild type	2.99	2.72	3.36	3.02	3	3.17	2.68	3.026
1.2 µg/ml, genetic background: ΔmarA	3.06	4.32	3.74	3.32	3.42	3.64	3	3.01
1.2 µg/ml, genetic background: Δrob	2.54	3.32	3.43	3.29	2.82	2.75	3.06	3.2
1.2 µg/ml, genetic background: ΔsoxS	2.88	3.12	3.22	2.57	3.15	3.186	3.16	2.81
2.3 µg/ml, genetic background: wild type	2.76	2.41	3.19	2.79	2.72	3.01	2.78	3.007
2.3 µg/ml, genetic background: ΔmarA	3.06	4.12	3.37	3.36	3.07	3.48	2.9	2.94
2.3 µg/ml, genetic background: Δrob	2.47	2.85	3.21	2.98	2.31	2.32	2.77	2.92
2.3 µg/ml, genetic background: ΔsoxS	2.74	2.7	3	2.259	2.45	2.79	2.78	2.67

C[C@]12CC[C@@H]3c4ccc(O)cc4CC[C@H]3[C@@H]1CC[C@@H]2O [Estradiol]
growth
Conditions	reporter plasmid: EVC	reporter plasmid: acrABp	reporter plasmid: marRABp	reporter plasmid: micFp	reporter plasmid: ompFp	reporter plasmid: robp	reporter plasmid: soxSp	reporter plasmid: tolCp
17 µg/ml, genetic background: wild type	3.16	2.89	3.325	3.37	3.06	3.42	3.11	3.24
17 µg/ml, genetic background: ΔmarA	3.51	4.19	3.92	3.2	3.71	3.94	3.12	3.2
17 µg/ml, genetic background: Δrob	2.72	3.23	3.51	3.33	2.79	3.07	3.14	3.46
17 µg/ml, genetic background: ΔsoxS	3.18	3.3	3.35	2.84	3.69	3.35	3.31	3.19
34 µg/ml, genetic background: wild type	3.04	2.77	3.319	3.28	3.23	3.167	3.222	3.215
34 µg/ml, genetic background: ΔmarA	3.34	4.78	4.114	3.24	3.55	3.88	3	3.12
34 µg/ml, genetic background: Δrob	2.83	2.93	3.58	3.21	2.87	2.86	2.95	3.34
34 µg/ml, genetic background: ΔsoxS	3.13	3.13	3.27	2.51	3.59	3.07	3.05	3.17
68.1 µg/ml, genetic background: wild type	3.15	2.89	3.42	3.13	3.32	3.66	3.23	3.34
68.1 µg/ml, genetic background: ΔmarA	3.58	4.39	4	3.3	3.448	4.16	2.88	3.33
68.1 µg/ml, genetic background: Δrob	2.58	3.16	3.4	3.17	2.74	2.95	2.82	3.07
68.1 µg/ml, genetic background: ΔsoxS	3.135	3.22	3.47	2.43	3.04	3.18	2.86	2.93
136.2 µg/ml, genetic background: wild type	2.87	2.72	3.31	3.1	3.08	3.31	3.13	2.98
136.2 µg/ml, genetic background: ΔmarA	3.3	4.48	4.14	3.32	3.69	4.18	3.03	2.97
136.2 µg/ml, genetic background: Δrob	2.56	2.8	3.65	3.07	2.58	2.81	2.62	2.96
136.2 µg/ml, genetic background: ΔsoxS	3.31	2.92	2.83	2.47	2.8	3.09	3.16	3.11

C[C@H]1COc2c(N3CCN(C)CC3)c(F)cc3c(=O)c(C(=O)O)cn1c23 [Levofloxacin]
growth
Conditions	reporter plasmid: EVC	reporter plasmid: acrABp	reporter plasmid: marRABp	reporter plasmid: micFp	reporter plasmid: ompFp	reporter plasmid: robp	reporter plasmid: soxSp	reporter plasmid: tolCp
0.0045 µg/ml, genetic background: wild type	2.73	2.55	2.82	3.09	2.79	2.73	2.973	2.74
0.0045 µg/ml, genetic background: ΔmarA	2.76	3.41	2.59	2.91	3.09	2.95	2.88	2.23
0.0045 µg/ml, genetic background: Δrob	2.36	2.25	2.82	2.33	1.78	1.97	2.72	2.54
0.0045 µg/ml, genetic background: ΔsoxS	2.89	3.13	2.92	2.55	2.47	2.84	2.97	2.74
0.009 µg/ml, genetic background: wild type	2.263	1.89	1.94	2.3	1.93	1.34	2.67	2.002
0.009 µg/ml, genetic background: ΔmarA	1.25	0.9476	0.152	1.59	1.12	0.808	2.61	0.356
0.009 µg/ml, genetic background: Δrob	0.813	0.224	0.691	0.591	-0.0218	0.255	2.4	0.851
0.009 µg/ml, genetic background: ΔsoxS	2.05	1.91	1.69	1.756	1.47	1.26	1.82	1.495
0.018 µg/ml, genetic background: wild type	0.39	-0.208	0.194	0.549	0.132	0.177	1.63	0.28
0.018 µg/ml, genetic background: ΔmarA	-0.0627	-0.16	-0.0173	0.0349	-0.00361	-0.0179	1.67	0.0115
0.018 µg/ml, genetic background: Δrob	-0.281	-0.166	0.0362	-0.0324	-0.0842	-0.0348	1.2	0.0226
0.018 µg/ml, genetic background: ΔsoxS	0.297	0.107	0.0968	0.0435	0.0152	-0.0112	0.0652	-0.029
0.036 µg/ml, genetic background: wild type	0.154	-0.253	0.11	0.155	0.1	0.163	0.219	0.145
0.036 µg/ml, genetic background: ΔmarA	-0.0581	-0.165	0.0147	0.0306	0.0323	-0.0177	0.0248	0.0469
0.036 µg/ml, genetic background: Δrob	-0.301	-0.0984	0.0266	-0.0576	-0.118	0.0112	0.0997	-0.0207
0.036 µg/ml, genetic background: ΔsoxS	-0.018	-0.00541	0.119	-0.0362	-0.0313	-0.0121	0.0311	0.0243

CC1(C)S[C@@H]2[C@H](/N=C/N3CCCCCC3)C(=O)N2[C@H]1C(=O)O [Mecillinam]
growth
Conditions	reporter plasmid: EVC	reporter plasmid: acrABp	reporter plasmid: marRABp	reporter plasmid: micFp	reporter plasmid: ompFp	reporter plasmid: robp	reporter plasmid: soxSp	reporter plasmid: tolCp
0.0081 µg/ml, genetic background: wild type	3.07	3	3.11	3.08	2.9	3.19	2.96	2.92
0.0081 µg/ml, genetic background: ΔmarA	3.13	4.02	3.47	2.94	3.36	3.28	2.96	2.88
0.0081 µg/ml, genetic background: Δrob	2.93	3.357	3.12	3.2	2.44	2.831	3.03	3.34
0.0081 µg/ml, genetic background: ΔsoxS	3.02	3.26	3.37	2.94	3.25	3.36	3.3	3.13
0.016 µg/ml, genetic background: wild type	2.79	2.46	2.68	2.81	2.8	2.87	2.86	2.64
0.016 µg/ml, genetic background: ΔmarA	2.68	3.05	2.81	2.51	2.69	2.98	2.65	2.59
0.016 µg/ml, genetic background: Δrob	2.36	2.64	2.6	2.69	2	2.31	2.89	2.48
0.016 µg/ml, genetic background: ΔsoxS	2.65	2.69	3.08	2.46	2.76	3.08	2.83	2.81
0.033 µg/ml, genetic background: wild type	1.92	1.37	1.45	1.71	1.71	1.62	2.5	1.4
0.033 µg/ml, genetic background: ΔmarA	0.996	0.891	1.01	1.62	1.29	1.474	2.71	0.95
0.033 µg/ml, genetic background: Δrob	1.35	1.01	0.658	0.847	0.408	0.861	2.36	0.831
0.033 µg/ml, genetic background: ΔsoxS	1.84	1.53	2.4	2.44	2.34	2.48	2.37	2.42
0.065 µg/ml, genetic background: wild type	0.0229	-0.454	0.0729	-0.000943	-0.00847	0.0821	0.0515	0.09385
0.065 µg/ml, genetic background: ΔmarA	-0.0861	-0.0467	0.0079	-0.0717	-0.0986	-0.00582	-0.0387	-0.00998
0.065 µg/ml, genetic background: Δrob	-0.306	-0.00874	0.0341	-0.0463	-0.0778	0.0467	0.0459	-0.0415
0.065 µg/ml, genetic background: ΔsoxS	0.0743	0.00471	0.113	-0.0317	0.0535	-0.0365	-0.0421	-0.0618

These are raw signals, not scaled to a control.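 Maximum concentrations were near the MIC for antimicrobials, 500 µM for most other compounds, and as high as 1 mM for known inducer-like compounds. Deletion strains began with a tenfold smaller inoculum, and wells with growth under 10% of the overall median counted as non-growing.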
